Experimental data taken from publication PMC6515687.
These are yes or no findings as the source states them, for the method shown. In cells and extracts the contact can be indirect. Binding calls can cover weak binding; strength is not graded here. Tags and fused reporters may be left off the sequences shown.

Key:
Experiment in all cases: co-IP; FLAG-MOV10 co-expressed with HA-SRSF1, HA-DDX5 or HA-DDX17 in HEK293T, 48 h; lysis in 50 mM Tris, 150 mM NaCl, 1 mM EDTA, 0.5% Triton, 10% glycerol; IP with anti-FLAG or anti-HA on protein A beads, 4 °C 3 h; western blot with anti-FLAG and anti-HA
[1] = target: T1, FLAG-MOV10 (mouse) (UniProt P23249)
T1 sequence: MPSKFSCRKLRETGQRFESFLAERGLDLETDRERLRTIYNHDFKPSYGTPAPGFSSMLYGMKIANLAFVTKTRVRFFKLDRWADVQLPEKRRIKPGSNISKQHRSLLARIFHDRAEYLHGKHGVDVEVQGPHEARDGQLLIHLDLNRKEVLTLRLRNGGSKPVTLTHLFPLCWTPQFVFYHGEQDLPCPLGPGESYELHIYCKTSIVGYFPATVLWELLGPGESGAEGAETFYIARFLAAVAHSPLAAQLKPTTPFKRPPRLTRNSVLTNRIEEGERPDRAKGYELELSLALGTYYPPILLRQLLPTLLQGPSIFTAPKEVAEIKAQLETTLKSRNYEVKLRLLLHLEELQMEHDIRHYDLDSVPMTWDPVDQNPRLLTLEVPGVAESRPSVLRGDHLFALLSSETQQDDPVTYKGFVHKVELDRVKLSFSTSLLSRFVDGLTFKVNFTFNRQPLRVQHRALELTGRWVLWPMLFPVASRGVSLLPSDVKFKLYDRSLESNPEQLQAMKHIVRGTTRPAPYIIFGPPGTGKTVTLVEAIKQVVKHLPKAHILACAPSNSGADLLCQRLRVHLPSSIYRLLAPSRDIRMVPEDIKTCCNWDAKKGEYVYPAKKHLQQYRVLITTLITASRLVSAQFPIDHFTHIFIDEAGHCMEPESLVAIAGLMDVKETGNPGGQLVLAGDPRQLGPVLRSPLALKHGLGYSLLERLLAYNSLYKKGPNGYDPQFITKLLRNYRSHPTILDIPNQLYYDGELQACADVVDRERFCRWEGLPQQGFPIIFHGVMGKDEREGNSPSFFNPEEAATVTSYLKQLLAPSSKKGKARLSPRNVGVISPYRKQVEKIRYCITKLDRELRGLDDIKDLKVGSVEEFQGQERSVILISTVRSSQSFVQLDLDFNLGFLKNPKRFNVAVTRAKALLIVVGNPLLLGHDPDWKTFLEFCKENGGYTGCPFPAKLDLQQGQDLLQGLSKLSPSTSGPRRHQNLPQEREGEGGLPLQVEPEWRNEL

[2] = target: HA-DDX17 (mouse)
[3] = target: HA-DDX5 (mouse)

Molecule: HA-DDX5 (mouse)
- binding [1]: binds

B1: FLAG-MOV10 (protein, UniProt P23249 1-1004)
chain: T1 sequence
- binding [2]: binds
- binding [3]: binds
